# In the supplement of paper PMC10689618:
# Values joined by “and” are separate entries in the source; they are usually repeats but may differ in a detail not shown here. Equal entries are not always repeated. The list shows a part of the results. Repeats are few or missing, and single values can be far off.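 Labelled rat cortical synaptosomes were engulfed by primary human fetal astrocytes. Engulfment equaled a red/green ratio, corrected for calcein live-cell signal and normalized to the plate median. Compounds were toxic when calcein dropped over 30%, and reduced phagocytosis when below 70% of the median above 5 µM.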
# How the values were obtained:
# Conditions in all cases: 24 h
# [1] = system: Human fetal astrocytes; test: loss of total cells relative to no-compound high-control median (toxicity); higher = more toxic (fewer cells)
# [2] = system: Human fetal astrocytes; test: synaptosome phagocytosis (pHrodo/calcein intensity ratio) relative to plate median of data wells; higher = more phagocytosis
# [3] = system: Human fetal astrocytes; test: loss of total cells relative to no-compound high-control median (toxicity); higher = more toxic (fewer cells); remark: listed apart in the source
# [4] = system: Human fetal astrocytes; test: synaptosome phagocytosis (pHrodo/calcein intensity ratio) relative to plate median of data wells; higher = more phagocytosis; remark: listed apart in the source
structure (smiles),measurement,setting,value
O=C(O)c1cc(=O)c2c(OCC(O)COc3cccc4oc(C(=O)O)cc(=O)c34)cccc2o1,loss of total cells,[1]; 1.39 µM,-4.5%
same,loss of total cells,[1]; 2.78 µM,-10.5%
same,loss of total cells,[1]; 5.56 µM,-22.3%
same,loss of total cells,[1]; 11.11 µM,3.7%
same,loss of total cells,[1]; 22.22 µM,22.2%
same,synaptosome phagocytosis,[2]; 1.39 µM,135%
same,synaptosome phagocytosis,[2]; 2.78 µM,123%
same,synaptosome phagocytosis,[2]; 5.56 µM,95.6%
same,synaptosome phagocytosis,[2]; 11.11 µM,105%
same,synaptosome phagocytosis,[2]; 22.22 µM,102%
CCOC(=O)C(=O)C1(C(=O)OCC)Oc2cc(OC)cc(OC)c2C(=O)C1c1ccccc1 (configuration not stated),loss of total cells,[1]; 1.39 µM,24.3%
same,loss of total cells,[1]; 2.78 µM,7.3%
same,loss of total cells,[1]; 5.56 µM,-24.4%
same,loss of total cells,[1]; 11.11 µM,31%
same,loss of total cells,[1]; 22.22 µM,9.3%
same,synaptosome phagocytosis,[2]; 1.39 µM,123%
same,synaptosome phagocytosis,[2]; 2.78 µM,112%
same,synaptosome phagocytosis,[2]; 5.56 µM,91.8%
same,synaptosome phagocytosis,[2]; 11.11 µM,117%
same,synaptosome phagocytosis,[2]; 22.22 µM,117%
"CCCn1c(=O)c2c(ncn2C)n(CCC)c1=O [1,3-Dipropyl-7-methylxanthine]",loss of total cells,[3]; 1.39 µM,-21.3%
same,loss of total cells,[3]; 2.78 µM,-24.8%
same,loss of total cells,[3]; 5.56 µM,-2.5%
same,loss of total cells,[3]; 11.11 µM,-22.9%
same,loss of total cells,[3]; 22.22 µM,-5.6%
same,synaptosome phagocytosis,[4]; 1.39 µM,93.1%
same,synaptosome phagocytosis,[4]; 2.78 µM,76.2%
same,synaptosome phagocytosis,[4]; 5.56 µM,93%
same,synaptosome phagocytosis,[4]; 11.11 µM,124%
same,synaptosome phagocytosis,[4]; 22.22 µM,106%
Cc1cc(O)c(C=O)c2c1C(=O)Oc1c(COC(=O)/C=C/C(=O)O)c(O)c(C(=O)O)c(C)c1O2,loss of total cells,[1]; 1.39 µM,-23.6%
same,loss of total cells,[1]; 2.78 µM,-3.3%
same,loss of total cells,[1]; 5.56 µM,37.4%
same,loss of total cells,[1]; 11.11 µM,45.2%
same,loss of total cells,[1]; 22.22 µM,10%
same,synaptosome phagocytosis,[2]; 1.39 µM,118%
same,synaptosome phagocytosis,[2]; 2.78 µM,109%
same,synaptosome phagocytosis,[2]; 5.56 µM,118%
same,synaptosome phagocytosis,[2]; 11.11 µM,132%
same,synaptosome phagocytosis,[2]; 22.22 µM,127%
C[C@H]1[C@H](NC(=O)/C(=N\OC(C)(C)C(=O)O)c2csc(N)n2)C(=O)N1S(=O)(=O)O,loss of total cells,[1]; 2.78 µM,13.3% and -0.7%
same,loss of total cells,[1]; 5.56 µM,-13% and -17.6%
same,loss of total cells,[1]; 22.22 µM,-0.4% and 10.7%
same,synaptosome phagocytosis,[2]; 1.39 µM,88% and 82.9%
same,synaptosome phagocytosis,[2]; 2.78 µM,125% and 105%
same,synaptosome phagocytosis,[2]; 5.56 µM,97.9% and 81.8%
same,synaptosome phagocytosis,[2]; 11.11 µM,121% and 106%
CC1(C)C[C@@H]2C(=O)CC[C@H]3O[C@]3(C)CC[C@H]21,loss of total cells,[1]; 1.39 µM,35.9%
same,loss of total cells,[1]; 2.78 µM,6%
same,loss of total cells,[1]; 5.56 µM,-6.9%
same,loss of total cells,[1]; 11.11 µM,40.6%
same,loss of total cells,[1]; 22.22 µM,3.3%
same,synaptosome phagocytosis,[2]; 1.39 µM,128%
same,synaptosome phagocytosis,[2]; 2.78 µM,103%
same,synaptosome phagocytosis,[2]; 5.56 µM,51.9%
same,synaptosome phagocytosis,[2]; 11.11 µM,116%
same,synaptosome phagocytosis,[2]; 22.22 µM,85.5%
CC(C)Nc1ncccn1,loss of total cells,[1]; 1.39 µM,42.2%
same,loss of total cells,[1]; 2.78 µM,8.3%
same,loss of total cells,[1]; 5.56 µM,2.2%
same,loss of total cells,[1]; 11.11 µM,-3.8%
same,loss of total cells,[1]; 22.22 µM,0.8%
same,synaptosome phagocytosis,[2]; 1.39 µM,65.7%
same,synaptosome phagocytosis,[2]; 2.78 µM,135%
same,synaptosome phagocytosis,[2]; 5.56 µM,75.4%
same,synaptosome phagocytosis,[2]; 11.11 µM,99.7%
same,synaptosome phagocytosis,[2]; 22.22 µM,130%
CO[C@H]1/C=C/O[C@@]2(C)Oc3c(C)c(O)c4c(O)c(c5c(nc6cc(C)ccn65)c4c3C2=O)NC(=O)/C(C)=C\C=C\[C@H](C)[C@H](O)[C@@H](C)[C@@H](O)[C@@H](C)[C@H](OC(C)=O)[C@@H]1C,loss of total cells,[1]; 1.39 µM,24.9%
same,loss of total cells,[1]; 2.78 µM,-5.2%
same,loss of total cells,[1]; 5.56 µM,9.9%
same,loss of total cells,[1]; 11.11 µM,-7%
same,loss of total cells,[1]; 22.22 µM,20.4%
same,synaptosome phagocytosis,[2]; 1.39 µM,99.8%
same,synaptosome phagocytosis,[2]; 2.78 µM,132%
same,synaptosome phagocytosis,[2]; 5.56 µM,99.5%
same,synaptosome phagocytosis,[2]; 11.11 µM,128%
same,synaptosome phagocytosis,[2]; 22.22 µM,115%
OCc1ccccc1O[C@@H]1O[C@H](CO)[C@@H](O)[C@H](O)[C@H]1O,loss of total cells,[1]; 1.39 µM,-40.3%
same,loss of total cells,[1]; 2.78 µM,-54.8%
same,loss of total cells,[1]; 5.56 µM,-3.7%
same,loss of total cells,[1]; 11.11 µM,40.3%
same,loss of total cells,[1]; 22.22 µM,-0.3%
same,synaptosome phagocytosis,[2]; 1.39 µM,97.2%
same,synaptosome phagocytosis,[2]; 2.78 µM,84.5%
same,synaptosome phagocytosis,[2]; 5.56 µM,129%
same,synaptosome phagocytosis,[2]; 11.11 µM,124%
same,synaptosome phagocytosis,[2]; 22.22 µM,59.3%

# Given as tab-separated lines: part of the list above
structure (smiles)	measurement	setting	value
CCOC(=O)C(=O)C1(C(=O)OCC)Oc2cc(OC)cc(OC)c2C(=O)C1c1ccccc1 (configuration not stated)	synaptosome phagocytosis	[2]; 5.56 µM	91.8%
same	synaptosome phagocytosis	[2]; 11.11 µM	117%
same	synaptosome phagocytosis	[2]; 22.22 µM	117%
CCCn1c(=O)c2c(ncn2C)n(CCC)c1=O [1,3-Dipropyl-7-methylxanthine]	loss of total cells	[3]; 1.39 µM	-21.3%
same	loss of total cells	[3]; 2.78 µM	-24.8%
